# Measurements published in the supplement of paper PMC4604168 (melanoma cell lines).
# This is one part of the list. Repeats are few or missing, and single values can be far off.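 Imaging used 1,536-well plates; nuclei positive for cleaved PARP by antibody were divided by total DNA-stained nuclei to yield the apoptosis fraction. Doses for screening kept most cells viable, and cell lines differ markedly in resting and induced cleaved-PARP levels.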
# Columns and labels:
# Test in all cases: cleaved PARP positive nuclei fraction relative to DMSO control; melanoma cells; higher = more apoptosis
# Settings in all cases: library dose: low library concentration; 72 h
# CBRC034 = test system: CBRC034 (line from a melanoma biopsy)
# COLO792 = test system: COLO792
# COLO800 = test system: COLO800
# COLO829 = test system: COLO829
# G361 = test system: G361
# IPC-298 = test system: IPC-298
# IST-MEL1 = test system: IST-MEL1
# LB2518-MEL = test system: LB2518-MEL
# LOXIMVI = test system: LOXIMVI
SMILES,cleaved PARP positive nuclei fraction (CBRC034) [%],cleaved PARP positive nuclei fraction (COLO792) [%],cleaved PARP positive nuclei fraction (COLO800) [%],cleaved PARP positive nuclei fraction (COLO829) [%],cleaved PARP positive nuclei fraction (G361) [%],cleaved PARP positive nuclei fraction (IPC-298) [%],cleaved PARP positive nuclei fraction (IST-MEL1) [%],cleaved PARP positive nuclei fraction (LB2518-MEL) [%],cleaved PARP positive nuclei fraction (LOXIMVI) [%]
"O=C(O)C(=O)Nc1sc2c(c1C(=O)O)CCNC2 + C/C(O)=C(\C#N)C(=O)Nc1cc(Br)ccc1Br [LFM-A13] (first compound 1.66667 µM, partner dose 2 µM)",191,80.9,125,104,66.1,40.5,27.2,148,36.9
"COc1cc2c(Oc3ccc4[nH]c(C)cc4c3F)ncnc2cc1OCCCN1CCCC1 [cediranib] + C/C(O)=C(\C#N)C(=O)Nc1cc(Br)ccc1Br [LFM-A13] (first compound 0.4 µM, partner dose 2 µM)",98.8,66,102,78.9,23,113,64.3,77.1,51.7
"Cc1cc(SCc2sc(-c3ccc(C(F)(F)F)c(F)c3)nc2C)ccc1OCC(=O)O + COc1cc(N2CCC(N3CCN(C)CC3)CC2)ccc1Nc1ncc(Cl)c(Nc2ccccc2S(=O)(=O)C(C)C)n1 [NVP-TAE684] (first compound 2 µM, partner dose 0.08 µM)",196,35.3,55,98.9,98.5,211,253,80.6,35.6
"C/C(O)=C(\C#N)C(=O)Nc1cc(Br)ccc1Br + c1cc(-c2cnn3cc(-c4ccc(OCCN5CCCCC5)cc4)cnc23)ccn1 [Dorsomorphin] (first compound 2 µM, partner dose 0.4 µM)",98.5,100,85.9,95.7,210,83.6,29.4,66.3,135
"O=S(=O)(c1ccccc1)N(CC(F)(F)F)c1ccc(C(O)(C(F)(F)F)C(F)(F)F)cc1 + Cc1cc(SCc2sc(-c3ccc(C(F)(F)F)c(F)c3)nc2C)ccc1OCC(=O)O [GW0742] (first compound 1.4 µM, partner dose 2 µM)",42.2,141,45,70.4,130,91.1,123,86.1,11.6
"CCc1ccc(CCOc2ccc(CC3SC(=O)NC3=O)cc2)nc1 (stereo unspecified) [pioglitazone] + C/C(O)=C(\C#N)C(=O)Nc1cc(Br)ccc1Br [LFM-A13] (first compound 2 µM, partner dose 2 µM)",47.2,83.1,127,83.1,188,42.9,185,99.5,77.4
"CO[C@@H]1[C@H](N(C)C(=O)c2ccccc2)C[C@H]2O[C@]1(C)n1c3ccccc3c3c4c(c5c6ccccc6n2c5c31)C(=O)NC4 [Midostaurin] + C/C(O)=C(\C#N)C(=O)Nc1cc(Br)ccc1Br [LFM-A13] (first compound 0.08 µM, partner dose 2 µM)",96,236,218,94.4,180,215,92.6,148,20.4
"COC(=O)c1sccc1S(=O)(=O)Nc1ccc(Nc2ccccc2)cc1OC + Cc1cc(SCc2sc(-c3ccc(C(F)(F)F)c(F)c3)nc2C)ccc1OCC(=O)O [GW0742] (first compound 1 µM, partner dose 2 µM)",48.9,60.6,42.3,115,90.2,40.3,43.8,73,69.5
"O=C(Nc1ccccc1)c1cc([N+](=O)[O-])ccc1Cl + C/C(O)=C(\C#N)C(=O)Nc1cc(Br)ccc1Br [LFM-A13] (first compound 2 µM, partner dose 2 µM)",92.1,54.3,109,100,52.4,135,57,85.8,1140
"C[C@]1(c2nc3c(C(N)=O)cccc3[nH]2)CCCN1 [Veliparib] + C/C(O)=C(\C#N)C(=O)Nc1cc(Br)ccc1Br [LFM-A13] (first compound 1.4 µM, partner dose 2 µM)",85.2,66.1,137,61,81.4,39.5,110,93.8,16.7
"CN(NC(=O)CC(=O)NN(C)C(=S)c1ccccc1)C(=S)c1ccccc1 + C/C(O)=C(\C#N)C(=O)Nc1cc(Br)ccc1Br [LFM-A13] (first compound 0.006 µM, partner dose 2 µM)",78.6,86.3,282,191,427,43.1,101,489,107
"CCN(CC)CCCCNc1ncc2cc(-c3cc(OC)cc(OC)c3)c(NC(=O)NC(C)(C)C)nc2n1 + Cc1cc(SCc2sc(-c3ccc(C(F)(F)F)c(F)c3)nc2C)ccc1OCC(=O)O [GW0742] (first compound 0.1 µM, partner dose 2 µM)",97.4,99.6,91.8,122,63,65.3,79.3,164,61.1
"CCN(CC)CCCCNc1ncc2cc(-c3cc(OC)cc(OC)c3)c(NC(=O)NC(C)(C)C)nc2n1 + C/C(O)=C(\C#N)C(=O)Nc1cc(Br)ccc1Br [LFM-A13] (first compound 0.1 µM, partner dose 2 µM)",43.7,103,173,61.3,126,79.9,44.6,85.8,64.1
"Cn1nnc2c(C(N)=O)ncn2c1=O [temozolomide] + Cc1cc(SCc2sc(-c3ccc(C(F)(F)F)c(F)c3)nc2C)ccc1OCC(=O)O [GW0742] (first compound 2 µM, partner dose 2 µM)",76.5,66.1,29.1,113,83.4,33.5,47.2,71.8,61.2
"Cc1cc(SCc2sc(-c3ccc(C(F)(F)F)c(F)c3)nc2C)ccc1OCC(=O)O + Oc1cc(-c2nc(-c3ccccc3)[nH]c2-c2ccncc2)ccc1Cl [L779450] (first compound 2 µM, partner dose 0.2 µM)",120,132,45.2,163,324,192,63,176,27.4
"C[C@]1(c2nc3c(C(N)=O)cccc3[nH]2)CCCN1 [Veliparib] + Cc1cc(SCc2sc(-c3ccc(C(F)(F)F)c(F)c3)nc2C)ccc1OCC(=O)O [GW0742] (first compound 1.4 µM, partner dose 2 µM)",184,136,104,169,103,38.2,45.1,82,87.9
"O=C(CCCCCCC(=O)Nc1ccccc1)NO [vorinostat] + C/C(O)=C(\C#N)C(=O)Nc1cc(Br)ccc1Br [LFM-A13] (first compound 0.08 µM, partner dose 2 µM)",132,68,105,33,71.2,117,84.9,42.8,40.8
"C/C(O)=C(\C#N)C(=O)Nc1cc(Br)ccc1Br + Cc1cc([N+](=O)[O-])ccc1NS(=O)(=O)c1cc(Cl)ccc1Cl [FH535] (first compound 2 µM, partner dose 1 µM)",1010,122,213,139,83.3,48.6,151,253,58.9
"Cc1nc(Nc2ncc(C(=O)Nc3c(C)cccc3Cl)s2)cc(N2CCN(CCO)CC2)n1 [dasatanib] + Cc1cc(SCc2sc(-c3ccc(C(F)(F)F)c(F)c3)nc2C)ccc1OCC(=O)O [GW0742] (first compound 0.004 µM, partner dose 2 µM)",137,71.4,63,101,170,82.1,149,149,184
"Cn1c(Nc2ccc(C(F)(F)F)cc2)nc2cc(Oc3ccnc(-c4ncc(C(F)(F)F)[nH]4)c3)ccc21 + O=C(Oc1ccc([N+](=O)[O-])cc1)N1CCC(C(O)(c2ccc3c(c2)OCO3)c2ccc3c(c2)OCO3)CC1 [JZL184] (first compound 0.08 µM, partner dose 1 µM)",109,486,125,95.1,92.8,278,511,130,58.2
"Cc1cc(SCc2sc(-c3ccc(C(F)(F)F)c(F)c3)nc2C)ccc1OCC(=O)O + Cn1cc(/C=C2\C(=O)Nc3cccnc32)c2ccccc21 [GW441756] (first compound 2 µM, partner dose 0.4 µM)",46.2,54.3,225,102,162,54.4,95.6,72,62.8
"N#Cc1c(O)c2c(-c3ccc(-c4ccccc4O)cc3)csc2[nH]c1=O + Cc1cc(SCc2sc(-c3ccc(C(F)(F)F)c(F)c3)nc2C)ccc1OCC(=O)O [GW0742] (first compound 2 µM, partner dose 2 µM)",79,94.2,228,44.1,61.4,36.5,92.3,149,31.3
"Cn1c(Nc2ccc(C(F)(F)F)cc2)nc2cc(Oc3ccnc(-c4ncc(C(F)(F)F)[nH]4)c3)ccc21 + Cc1cc(SCc2sc(-c3ccc(C(F)(F)F)c(F)c3)nc2C)ccc1OCC(=O)O [GW0742] (first compound 0.08 µM, partner dose 2 µM)",43.8,510,230,176,78.8,91.1,35.3,264,64.9
"C/C(O)=C(\C#N)C(=O)Nc1cc(Br)ccc1Br + COc1cc(N2CCC(N3CCN(C)CC3)CC2)ccc1Nc1ncc(Cl)c(Nc2ccccc2S(=O)(=O)C(C)C)n1 [NVP-TAE684] (first compound 2 µM, partner dose 0.08 µM)",82.7,71.2,87.8,124,111,80.6,89.3,95.2,70.7

# 2 entries drawn at random from the list so far:
SMILES,cleaved PARP positive nuclei fraction (CBRC034) [%],cleaved PARP positive nuclei fraction (COLO792) [%],cleaved PARP positive nuclei fraction (COLO800) [%],cleaved PARP positive nuclei fraction (COLO829) [%],cleaved PARP positive nuclei fraction (G361) [%],cleaved PARP positive nuclei fraction (IPC-298) [%],cleaved PARP positive nuclei fraction (IST-MEL1) [%],cleaved PARP positive nuclei fraction (LB2518-MEL) [%],cleaved PARP positive nuclei fraction (LOXIMVI) [%]
"C/C(O)=C(\C#N)C(=O)Nc1cc(Br)ccc1Br + Cc1cc([N+](=O)[O-])ccc1NS(=O)(=O)c1cc(Cl)ccc1Cl [FH535] (first compound 2 µM, partner dose 1 µM)",1010,122,213,139,83.3,48.6,151,253,58.9
"N#Cc1c(O)c2c(-c3ccc(-c4ccccc4O)cc3)csc2[nH]c1=O + Cc1cc(SCc2sc(-c3ccc(C(F)(F)F)c(F)c3)nc2C)ccc1OCC(=O)O [GW0742] (first compound 2 µM, partner dose 2 µM)",79,94.2,228,44.1,61.4,36.5,92.3,149,31.3
